# US20250374923A1 (priority 2022, published 2025)
# Structures can show the parent of a compound that is named as a salt. At least one compound was matched to its structure with a doubt left.
# Tested on: citrus greening and leaf mottling
# Assay: Additional data: disease and leaf mottling on new transplants (FIG. 32)
# Details: three applications of 19 mg OTC HCl over two-year trial, total 56 mg
structure (smiles),measurement,value
"CN(C)[C@@H]1C(O)=C(C(N)=O)C(=O)[C@@]2(O)C(O)=C3C(=O)c4c(O)cccc4[C@@](C)(O)[C@H]3[C@H](O)[C@@H]12 [OTC-HCl, oxytetracycline hydrochloride]",disease and leaf mottling compared to nontreated controls,lower disease and leaf mottling
